Measurements: publication PMC10192748
No constants are given. Whether binding was seen depends on the method and setting. In cells and extracts the contact can be indirect. Some results given as binding are weak or reduced against the parent protein; the word gives no strength.

Amino acid sequences for entries named in this document (tags omitted).
UniProt Q9ULZ3: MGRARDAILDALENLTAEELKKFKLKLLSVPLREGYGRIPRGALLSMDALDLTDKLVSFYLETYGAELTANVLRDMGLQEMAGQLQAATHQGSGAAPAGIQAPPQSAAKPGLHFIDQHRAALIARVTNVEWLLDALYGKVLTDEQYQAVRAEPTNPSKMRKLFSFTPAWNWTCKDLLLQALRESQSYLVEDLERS

Molecular target: apoptosis-associated speck-like protein containing a caspase recruitment domain (ASC) (human (endogenous in A549)) (UniProt Q9ULZ3)
Test: co-IP; lysate supernatants of A549 cells exposed to 2 µM BaP for up to four days; anti-ASC antibody (A1170) 2 h at 4°C, Dynabeads Protein-A 1 h at 4°C, washed twice with lysis buffer; immunoblot

B1: nucleotide-binding oligomerization domain (NOD)-like receptor protein 1 (NLRP1) (protein, UniProt Q9C000 1-1473)
chain: MAGGAWGRLACYLEFLKKEELKEFQLLLANKAHSRSSSGETPAQPEKTSGMEVASYLVAQYGEQRAWDLALHTWEQMGLRSLCAQAQEGAGHSPSFPYSPSEPHLGSPSQPTSTAVLMPWIHELPAGCTQGSERRVLRQLPDTSGRRWREISASLLYQALPSSPDHESPSQESPNAPTSTAVLGSWGSPPQPSLAPREQEAPGTQWPLDETSGIYYTEIREREREKSEKGRPPWAAVVGTPPQAHTSLQPHHHPWEPSVRESLCSTWPWKNEDFNQKFTQLLLLQRPHPRSQDPLVKRSWPDYVEENRGHLIEIRDLFGPGLDTQEPRIVILQGAAGIGKSTLARQVKEAWGRGQLYGDRFQHVFYFSCRELAQSKVVSLAELIGKDGTATPAPIRQILSRPERLLFILDGVDEPGWVLQEPSSELCLHWSQPQPADALLGSLLGKTILPEASFLITARTTALQNLIPSLEQARWVEVLGFSESSRKEYFYRYFTDERQAIRAFRLVKSNKELWALCLVPWVSWLACTCLMQQMKRKEKLTLTSKTTTTLCLHYLAQALQAQPLGPQLRDLCSLAAEGIWQKKTLFSPDDLRKHGLDGAIISTFLKMGILQEHPIPLSYSFIHLCFQEFFAAMSYVLEDEKGRGKHSNCIIDLEKTLEAYGIHGLFGASTTRFLLGLLSDEGEREMENIFHCRLSQGRNLMQWVPSLQLLLQPHSLESLHCLYETRNKTFLTQVMAHFEEMGMCVETDMELLVCTFCIKFSRHVKKLQLIEGRQHRSTWSPTMVVLFRWVPVTDAYWQILFSVLKVTRNLKELDLSGNSLSHSAVKSLCKTLRRPRCLLETLRLAGCGLTAEDCKDLAFGLRANQTLTELDLSFNVLTDAGAKHLCQRLRQPSCKLQRLQLVSCGLTSDCCQDLASVLSASPSLKELDLQQNNLDDVGVRLLCEGLRHPACKLIRLGLDQTTLSDEMRQELRALEQEKPQLLIFSRRKPSVMTPTEGLDTGEMSNSTSSLKRQRLGSERAASHVAQANLKLLDVSKIFPIAEIAEESSPEVVPVELLCVPSPASQGDLHTKPLGTDDDFWGPTGPVATEVVDKEKNLYRVHFPVAGSYRWPNTGLCFVMREAVTVEIEFCVWDQFLGEINPQHSWMVAGPLLDIKAEPGAVEAVHLPHFVALQGGHVDTSLFQMAHFKEEGMLLEKPARVELHHIVLENPSFSPLGVLLKMIHNALRFIPVTSVVLLYHRVHPEEVTFHLYLIPSDCSIRKAIDDLEMKFQFVRIHKPPPLTPLYMGCRYTVSGSGSGMLEILPKELELCYRSPGEDQLFSEFYVGHLGSGIRLQVKDKKDETLVWEALVKPGDLMPATTLIPPARIAVPSPLDAPQLLHFVDQYREQLIARVTSVEVVLDKLHGQVLSQEQYERVLAENTRPSQMRKLFSLSQSWDRKCKDGLYQALKETHPHLIMELWEKGSKKGLLPLSS
binding: binds
